Experimental data from patent publication US8198322B2, “Apoptotic and anti-tumor activities of metallo-salens” (Board of Regents, The University of Texas System, priority 2008, dated 2012).
Some results were stated once for a whole list of compounds, not compound by compound. For at least one compound, name, drawing or mass did not settle the structure.

What was measured:
[1] = system: MCF-7 cells; assay: Cell viability assay (MTT, DIC microscopy) at 20 μM; format: cell-based, human; settings: MCF-7, 20 μM, up to 96 hrs
Protocol: (A-F): MCF-7 cells were treated with 20 μM metallo-salens and incubated for varying time periods (24-96 hrs). Viable cells were quantified using MTT assay. The percent viable cells (relative to control, treated with equivalent amount of DMSO) were plotted as a function of time for each compound. This experiment was repeated twice with 8 replicate treatments each time. Bars indicates standard errors of mean (SEM). Curves 1-42 in FIGS. 2A-2F, represent the viability curves for compounds 1-42 respectively. (A′-F′) DIC images of the corresponding MCF-7 cells that were treated with DMSO (control panel), or with 20 μM Mn(III)- and Fe(III)-salen complexes for 72 hrs showing the visual effects on cellular morphology and growth/death.
Cell viability assay: Approximately 10,000 MCF-7 cells were seeded into each well of a 96 well micro titer plate and incubated 24 hrs in presence of 150 μL DMEM. An additional 50 μL DMEM containing required amount of each metallo-salen to obtain 20 μM final concentrations (in 200 μL final volume) in 8 replicate wells were added. Control wells were treated with equivalent amount of dimethylsulfoxide (DMSO). The viability of the cells was assayed at 24, 48, 72 and 96 hrs post treatment by using both microscopic observation and MTT assay. For microscopic observation cells were stained with trypan blue for at least 10 minute and observed under Differential Interference Contrast (DIC) setting of a fluorescence microscope (Nikon Eclipse TE2000-U, Japan). The MTT assay was performed as described previously^42. In brief, 20 μL MTT (5 mg/ml in PBS) was added into each wells and incubated for 2 hrs under normal growth condition to allow the viable cell to convert MTT to formazan. Then the media was discarded and formazan crystals were dissolved by adding 100 μL of DMSO and incubating 2 hrs with continuous shaking. The absorbance of the lysates were directly measured at 560 nm using a micro plate reader (Fluostar-omega, BMG Labtech). The absorbance values (which are proportional to the viable cell) are plotted as a function of time. The studies were repeated twice with 8 replicates each time.
The inventors studied the effect of Mn(III)-salen and Fe(III)-salen derivatives on the cell viability of cultured breast cancer cells MCF-7 in order to investigate the biochemical effects of the derivatives. The cells were incubated alone or with 20 μM of each of the metallo-salen derivatives separately (compounds 1-45) for varying time periods (0-96 hrs). The viable cells were quantified using MTT assay and the percent of cell survived (relative to the control untreated cells) were plotted against time (FIGS. 2A-2F).

[2] = system: MCF-7 cells; assay: Nuclear fragmentation with DAPI staining; format: cell-based, human; settings: MCF-7, 100 μM, 24 hrs

Row | SMILES | effect on cell viability (in words) [1] | effect on nuclear morphology (DAPI staining) [2]
1 | [Cl-].[Fe+3].[O-]c1c(O)cccc1C=Nc1ccccc1N=Cc1cccc(O)c1[O-] [compound 30, 3,3′-Dihydroxysalphen Fe(III) chloride] | very efficient in inducing cell death | significant effects on nuclear morphology and fragmentation
2 | COc1cccc(C=Nc2ccccc2N=Cc2cccc(OC)c2[O-])c1[O-].[Cl-].[Fe+3] [compound 33, 3,3′-Dimethoxysalphen Fe(III) chloride] | very efficient in inducing cell death | significant effects on nuclear morphology and fragmentation
3 | COc1ccc([O-])c(C=Nc2ccccc2N=Cc2cc(OC)ccc2[O-])c1.[Cl-].[Fe+3] [compound 35, 5,5′-Dimethoxysalphen Fe(III) chloride] | very efficient in inducing cell death | significant effects on nuclear morphology and fragmentation
4 | [Cl-].[Fe+3].[O-]c1c(O)cccc1C=Nc1cc2ccccc2cc1N=Cc1cccc(O)c1[O-] [compound 37, 3,3′-Dihydroxysalnaphen Fe(III) chloride] | very efficient in inducing cell death | significant effects on nuclear morphology and fragmentation
5 | COc1cccc(C=Nc2cc3ccccc3cc2N=Cc2cccc(OC)c2[O-])c1[O-].[Cl-].[Fe+3] [compound 40, 3,3′-Dimethoxysalnaphen Fe(III) chloride] | very efficient in inducing cell death | significant effects on nuclear morphology and fragmentation
6 | COc1ccc(C=Nc2cc3ccccc3cc2N=Cc2ccc(OC)cc2[O-])c([O-])c1.[Cl-].[Fe+3] [compound 41, 4,4′-Dimethoxysalnaphen Fe(III) chloride] | very efficient in inducing cell death | significant effects on nuclear morphology and fragmentation
